According to patent US20200399344A1:
Results are given in words; binding and its absence hold for the method and conditions named. Some entries that bind do so weakly or less than the wild type. Sequences can lack the tags named with a protein.

Sequences of proteins named here, by UniProt entry; tags and fusion partners are left off. Residues count along the entry.
UniProt P09793, residues 36-162: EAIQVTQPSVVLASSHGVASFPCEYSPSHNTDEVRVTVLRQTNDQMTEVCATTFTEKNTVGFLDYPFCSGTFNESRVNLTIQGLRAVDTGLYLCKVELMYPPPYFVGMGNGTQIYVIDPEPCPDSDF
UniProt P13747, residues 22-305: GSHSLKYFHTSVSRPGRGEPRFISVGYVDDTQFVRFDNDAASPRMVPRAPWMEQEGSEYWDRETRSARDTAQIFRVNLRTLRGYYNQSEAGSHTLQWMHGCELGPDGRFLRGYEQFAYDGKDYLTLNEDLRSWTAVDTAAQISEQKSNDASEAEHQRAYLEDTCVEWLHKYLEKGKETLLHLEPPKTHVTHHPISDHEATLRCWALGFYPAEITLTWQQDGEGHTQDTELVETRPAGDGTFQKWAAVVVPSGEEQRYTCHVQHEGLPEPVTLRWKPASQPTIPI
UniProt P04202, residues 279-390: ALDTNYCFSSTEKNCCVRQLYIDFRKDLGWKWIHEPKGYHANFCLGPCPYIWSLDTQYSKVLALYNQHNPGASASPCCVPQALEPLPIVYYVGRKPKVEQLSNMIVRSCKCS

What was measured:
[1] = target: mCD28 expressed on CHO-K1/mCD28 cells (mouse) (UniProt P31041); experiment: flow cytometry (FIG. 67)
[2] = target: T1, mCD28, plate-bound (mouse) (UniProt P31041); experiment: ELISA, plate-bound mCD28 (FIG. 5C)
T1 sequence (looked up): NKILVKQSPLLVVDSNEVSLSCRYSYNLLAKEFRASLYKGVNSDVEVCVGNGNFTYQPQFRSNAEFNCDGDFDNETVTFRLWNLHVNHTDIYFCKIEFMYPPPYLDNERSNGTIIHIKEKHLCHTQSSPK

[3] = target: mCTLA-4, plate-bound (mouse) (UniProt P09793); experiment: ELISA, plate-bound mCTLA-4 (FIG. 5D)
[4] = target: HLA class I histocompatibility antigen, alpha chain E (HLA-E), plate-bound recombinant protein (human) (UniProt P13747); experiment: ELISA, plate-bound HLA-E, anti-mouse Fc HRP (FIG. 5B)
[5] = target: T1, mCD28, plate-bound (mouse); experiment: ELISA, plate-bound mCD28, anti-mouse Fc HRP (FIG. 5C)
[6] = target: mCTLA-4, plate-bound (mouse) (UniProt P09793); experiment: ELISA, plate-bound mCTLA-4, anti-mouse Fc HRP (FIG. 5D)
[7] = target: mCD28 expressed on CHO-K1/mCD28 cells (mouse) (UniProt P31041); experiment: flow cytometry, CHO-K1/mCD28 against WT CHO-K1 (FIG. 67, 68)
mCD28-Fc (mouse) [8] = target: T2, mCD28-Fc (mouse) (UniProt P31041); experiment: ELISA, recombinant mouse CD28 coated, anti-mouse Fc HRP (FIG. 33)
T2 sequence (looked up): T1 sequence (looked up)

[9] = target: mCD28 expressed on CHO-K1/mCD28 cells (mouse) (UniProt P31041); experiment: flow cytometry cell binding assay, detection Anti-mFc-APC 1:100
[10] = target: mCD28 expressed on CHO-K1/mCD28 cells (mouse) (UniProt P31041); experiment: flow cytometry on CHO-K1/mCD28 cells (mCD28-c16), APC-A, dose series (doses not given)
[11] = target: mCD28 expressed on CHO-K1/mCD28 cells (mouse) (UniProt P31041); experiment: flow cytometry (FIG. 69)
mCD28-Fc (mouse) [12] = target: T2, mCD28-Fc (mouse); experiment: ELISA, mCD28-Fc coated (FIG. 33)
[13] = target: HLA class I histocompatibility antigen, alpha chain E (HLA-E), plate-bound recombinant protein (human) (UniProt P13747); experiment: ELISA, plate-bound HLA-E (FIG. 7B)
[14] = target: HLA class I histocompatibility antigen, alpha chain E (HLA-E), plate-bound recombinant protein (human) (UniProt P13747); experiment: ELISA, plate-bound HLA-E, anti-mouse Fc HRP (FIG. 3B)
[15] = target: mCTLA-4, plate-bound (mouse) (UniProt P09793); experiment: ELISA, plate-bound mCTLA-4, anti-mouse Fc HRP (FIG. 3C)
mCD28-Fc (mouse) [16] = target: T2, mCD28-Fc (mouse); experiment: ELISA: coat mCD28-Fc (Acro), detection Anti-mFc-HRP
[17] = target: mCD28 expressed on CHO-K1/mCD28 cells (mouse) (UniProt P31041); experiment: flow cytometry, CHO-K1/mCD28 against WT CHO-K1 (FIG. 69, 70)
[18] = target: recombinant HLA-E-His protein (human) (UniProt P13747); experiment: sandwich ELISA, HLA-E-His coated, anti-mCD86 detection (FIG. 37)
[19] = target: recombinant HLA-E-His protein (human) (UniProt P13747); experiment: sandwich ELISA, HLA-E-His coated, rat anti-mCD86 detection (FIG. 37)
[20] = target: recombinant HLA-E-His protein (human) (UniProt P13747); experiment: dual ELISA; coat HLA-E-His, mCD86-fc-NKG2a titrated, detection Anti-mCD86, Anti-Rat-HRP
[21] = target: mCD28 expressed on CHO-K1/mCD28 cells (mouse) (UniProt P31041); experiment: flow cytometry on CHO-K1/mCD28 cells (mCD28-C16), APC-A, dose series (doses not given)
[22] = target: mTGFβ1, recombinant, plate-bound (mouse) (UniProt P04202); experiment: ELISA, mTGFβ1 coated (FIG. 30)
[23] = target: mTGFβ1, recombinant, plate-bound (mouse) (UniProt P04202); experiment: ELISA, recombinant TGFβ1 coated, anti-mFc HRP (FIG. 30)
[24] = target: mTGFβ1, recombinant, plate-bound (mouse) (UniProt P04202); experiment: ELISA: coat mTGFB1 (R+D 7666-MB), detection Anti-mFc-HRP
[25] = target: HLA class I histocompatibility antigen, alpha chain E (HLA-E), plate-bound recombinant protein (human) (UniProt P13747); experiment: ELISA, plate-bound HLA-E, anti-mCD48 antibody and anti-goat HRP (FIG. 7B)
[26] = target: T3, recombinant Qa1 protein (Qa1-His) (mouse) (UniProt P06339); experiment: sandwich ELISA, Qa1 captured by coated anti-mouse Qa1 antibody, anti-mCD48 detection (FIG. 36)
T3 sequence (MHC heavy, looked up): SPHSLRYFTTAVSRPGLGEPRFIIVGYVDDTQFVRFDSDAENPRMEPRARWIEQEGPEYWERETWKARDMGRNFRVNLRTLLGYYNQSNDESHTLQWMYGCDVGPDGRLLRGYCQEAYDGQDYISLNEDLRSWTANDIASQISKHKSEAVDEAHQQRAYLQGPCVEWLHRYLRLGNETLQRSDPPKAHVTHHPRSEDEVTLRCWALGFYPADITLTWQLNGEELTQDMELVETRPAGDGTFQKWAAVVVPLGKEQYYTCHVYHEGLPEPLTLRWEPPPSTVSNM

[27] = target: T3, recombinant Qa1 protein (Qa1-His) (mouse); experiment: sandwich ELISA, Qa1-His captured by coated anti-mouse Qa1 antibody, goat anti-mCD48 detection (FIG. 36)
[28] = target: T3, recombinant Qa1 protein (Qa1-His) (mouse); experiment: sandwich ELISA; coat Anti-mouse Qa-1, primary Qa-1-His, mCD48-Fc-NKG2a titrated, secondary Anti-mCD48, Donkey Anti-Goat IgG HRP

Measured: binding

B1: mouse CD80-Fc-NKG2A chimeric protein (Fc fusion)
chain: VDEQLSKSVKDKVLLPCRYNSPHEDESEDRIYWQKHDKVVLSVIAGKLKVWPEYKNRTLYDNTTYSLIILGLVLSDRGTYSCVVQKKERGTYEVKHLALVKLSIKADFSTPNITESGNPSADTKRITCFASGGFPKPRFSWLENGRELPGINTTISQDPESELYTISSQLDFNTTRNHTIKCLIKYGDAHVSEDFTWEKPPEDPPDSKNVPRDCGCKPCICTVPEVSSVFIFPPKPKDVLTITLTPKVTCVVVDISKDDPEVQFSWFVDDVEVHTAQTQPREEQFNSTFRSVSELPIMHQDWLNGKEFKCRVNSAAFPAPIEKTISKTKGRPKAPQVYTIPPPKEQMAKDKVSLTCMITDFFPEDITVEWQWNGQPAENYKNTQPIMDTDGSYFVYSKLNVQKSNWEAGNTFTCSVLHEGLHNHHTEKSLSHSPGIIEGRMDTPYTEAKAQINSSMTRTHRDINYTLSSAQPCPHCPKEWISYSHNCYFIGMERKSWNDSLVSCISKNCSLLYIDSEEEQDFLQSLSLISWTGILRKGRGQPWVWKEDSIFKPKIAEILHDECNCAMMSASGLTADNCTTLHPYLCKCKFPI
binds: [1] | [2] | [3] | [4] | [5] | [6] | [7] | mCD28-Fc (mouse) [8] | [9] | [10]

B2: mouse CD86-Fc-NKG2A chimeric protein (Fc fusion)
chain: VSVETQAYFNGTAYLPCPFTKAQNISLSELVVFWQDQQKLVLYEHYLGTEKLDSVNAKYLGRTSFDRNNWTLRLHNVQIKDMGSYDCFIQKKPPTGSIILQQTLTELSVIANFSEPEIKLAQNVTGNSGINLTCTSKQGHPKPKKMYFLITNSTNEYGDNMQISQDNVTELFSISNSLSLSFPDGVWHMTVVCVLETESMKISSKPLNFTQEFPSPQTYWKVPRDCGCKPCICTVPEVSSVFIFPPKPKDVLTITLTPKVTCVVVDISKDDPEVQFSWFVDDVEVHTAQTQPREEQFNSTFRSVSELPIMHQDWLNGKEFKCRVNSAAFPAPIEKTISKTKGRPKAPQVYTIPPPKEQMAKDKVSLTCMITDFFPEDITVEWQWNGQPAENYKNTQPIMDTDGSYFVYSKLNVQKSNWEAGNTFTCSVLHEGLHNHHTEKSLSHSPGIIEGRMDTPYTEAKAQINSSMTRTHRDINYTLSSAQPCPHCPKEWISYSHNCYFIGMERKSWNDSLVSCISKNCSLLYIDSEEEQDFLQSLSLISWTGILRKGRGQPWVWKEDSIFKPKIAEILHDECNCAMMSASGLTADNCTTLHPYLCKCKFPI
binds: [11] | mCD28-Fc (mouse) [12] | [13] | [14] | [15] | mCD28-Fc (mouse) [16] | [17] | [18] | [19] | [9] | [20] | [21]

B3: mouse TGFBR2-Fc-NKG2A chimeric protein (Fc fusion)
chain: IPPHVPKSDVEMEAQKDASIHLSCNRTIHPLKHFNSDVMASDNGGAVKLPQLCKFCDVRLSTCDNQKSCMSNCSITAICEKPHEVCVAVWRKNDKNITLETVCHDPKLTYHGFTLEDAASPKCVMKEKKRAGETFFMCACNMEECNDYIIFSEEYTTSSPDVPRDCGCKPCICTVPEVSSVFIFPPKPKDVLTITLTPKVTCVVVDISKDDPEVQFSWFVDDVEVHTAQTQPREEQFNSTFRSVSELPIMHQDWLNGKEFKCRVNSAAFPAPIEKTISKTKGRPKAPQVYTIPPPKEQMAKDKVSLTCMITDFFPEDITVEWQWNGQPAENYKNTQPIMDTDGSYFVYSKLNVQKSNWEAGNTFTCSVLHEGLHNHHTEKSLSHSPGIIEGRMDTPYTEAKAQINSSMTRTHRDINYTLSSAQPCPHCPKEWISYSHNCYFIGMERKSWNDSLVSCISKNCSLLYIDSEEEQDFLQSLSLISWTGILRKGRGQPWVWKEDSIFKPKIAEILHDECNCAMMSASGLTADNCTTLHPYLCKCKFPI
binds: [22] | [23] | [24]

B4: mouse CD48-Fc-NKG2A chimeric protein (Fc fusion)
chain: FQGHSIPDINATTGSNVTLKIHKDPLGPYKRITWLHTKNQKILEYNYNSTKTIFESEFKGRVYLEENNGALHISNVRKEDKGTYYMRVLRETENELKITLEVFDPVPKPSIEINKTEASTDSCHLRLSCEVKDQHVDYTWYESSGPFPKKSPGYVLDLIVTPQNKSTFYTCQVSNPVSSKNDTVYFTLPCDLARSVPRDCGCKPCICTVPEVSSVFIFPPKPKDVLTITLTPKVTCVVVDISKDDPEVQFSWFVDDVEVHTAQTQPREEQFNSTFRSVSELPIMHQDWLNGKEFKCRVNSAAFPAPIEKTISKTKGRPKAPQVYTIPPPKEQMAKDKVSLTCMITDFFPEDITVEWQWNGQPAENYKNTQPIMDTDGSYFVYSKLNVQKSNWEAGNTFTCSVLHEGLHNHHTEKSLSHSPGIIEGRMDTPYTEAKAQINSSMTRTHRDINYTLSSAQPCPHCPKEWISYSHNCYFIGMERKSWNDSLVSCISKNCSLLYIDSEEEQDFLQSLSLISWTGILRKGRGQPWVWKEDSIFKPKIAEILHDECNCAMMSASGLTADNCTTLHPYLCKCKFPI
binds: [25] | [26] | [27] | [28]
